Source: the supplement of paper PMC8728848
The other results are listed elsewhere or left out.

Tests used:
Assay in all cases: glycan array binding signal (z-score within array); higher = stronger binding
Conditions in all cases: glycan notation: IUPAC condensed, linker removed
[1] = target: Fuc(a1-2)[Gal(a1-3)]Gal(b1-4)GlcNAc(b1-2)Man(a1-3)[Fuc(a1-2)[Gal(a1-3)]Gal(b1-4)GlcNAc(b1-2)Man(a1-6)]Man(b1-4)GlcNAc(b1-4)[Fuc(a1-6)]GlcNAc
Outline: (§1)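 The Consortium for Functional Glycomics database supplied 3228 glycan arrays, of which those lacking an available protein sequence were dropped. The binding signal, a within-array Z-score, was averaged across arrays of the same protein sequence and across linkers. Negative scores can be read as non-binding.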

[2] = target: Fuc(a1-2)[Gal(a1-3)]Gal(b1-4)GlcNAc(b1-3)GalNAc
Outline: as §1

[3] = target: Fuc(a1-2)[Gal(a1-3)]Gal(b1-4)GlcNAc(b1-3)[Fuc(a1-2)[Gal(a1-3)]Gal(b1-4)GlcNAc(b1-6)]GalNAc
Outline: as §1

[4] = target: Fuc(a1-2)[Gal(a1-3)]Gal(b1-4)GlcNAc(b1-6)GalNAc
Outline: as §1

[5] = target: Fuc(a1-2)[Gal(a1-3)]Gal(b1-4)[Fuc(a1-3)]Glc
Outline: as §1

[6] = target: Fuc(a1-2)[Gal(a1-3)]Gal(b1-4)[Fuc(a1-3)]GlcNAc
Outline: as §1

[7] = target: Fuc(a1-2)[Gal(a1-3)]Gal(b1-4)[Fuc(a1-3)]GlcNAc(b1-3)GalNAc
Outline: as §1

[8] = target: Fuc(a1-2)[Gal(a1-4)]Gal(b1-4)GlcNAc
Outline: as §1

[9] = target: Fuc(a1-2)[GalNAc(a1-3)]Gal
Outline: as §1

[10] = target: Fuc(a1-2)[GalNAc(a1-3)]Gal(b1-3)GalNAc(a1-3)[Fuc(a1-2)]Gal(b1-4)GlcNAc
Outline: as §1

[11] = target: Fuc(a1-2)[GalNAc(a1-3)]Gal(b1-3)GalNAc(b1-3)Gal(a1-4)Gal(b1-4)Glc
Outline: as §1

[12] = target: Fuc(a1-2)[GalNAc(a1-3)]Gal(b1-3)GlcNAc
Outline: as §1

[13] = target: Fuc(a1-2)[GalNAc(a1-3)]Gal(b1-3)GlcNAc(b1-2)Man(a1-3)[Fuc(a1-2)[GalNAc(a1-3)]Gal(b1-3)GlcNAc(b1-2)Man(a1-6)]Man(b1-4)GlcNAc(b1-4)GlcNAc
Outline: as §1

[14] = target: Fuc(a1-2)[GalNAc(a1-3)]Gal(b1-3)GlcNAc(b1-2)Man(a1-3)[Fuc(a1-2)[GalNAc(a1-3)]Gal(b1-3)GlcNAc(b1-2)Man(a1-6)]Man(b1-4)GlcNAc(b1-4)[Fuc(a1-6)]GlcNAc
Outline: as §1

[15] = target: Fuc(a1-2)[GalNAc(a1-3)]Gal(b1-3)GlcNAc(b1-3)GalNAc
Outline: as §1

[16] = target: Fuc(a1-2)[GalNAc(a1-3)]Gal(b1-3)GlcNAc(b1-6)GalNAc
Outline: as §1

[17] = target: Fuc(a1-2)[GalNAc(a1-3)]Gal(b1-4)Glc
Outline: as §1

[18] = target: Fuc(a1-2)[GalNAc(a1-3)]Gal(b1-4)GlcNAc
Outline: as §1

[19] = target: Fuc(a1-2)[GalNAc(a1-3)]Gal(b1-4)GlcNAc(b1-2)Man
Outline: as §1

[20] = target: Fuc(a1-2)[GalNAc(a1-3)]Gal(b1-4)GlcNAc(b1-2)Man(a1-3)[Fuc(a1-2)[GalNAc(a1-3)]Gal(b1-4)GlcNAc(b1-2)Man(a1-6)]Man(b1-4)GlcNAc(b1-4)GlcNAc
Outline: as §1

[21] = target: Fuc(a1-2)[GalNAc(a1-3)]Gal(b1-4)GlcNAc(b1-2)Man(a1-3)[Fuc(a1-2)[GalNAc(a1-3)]Gal(b1-4)GlcNAc(b1-2)Man(a1-6)]Man(b1-4)GlcNAc(b1-4)[Fuc(a1-6)]GlcNAc
Outline: as §1

[22] = target: Fuc(a1-2)[GalNAc(a1-3)]Gal(b1-4)GlcNAc(b1-3)Gal(b1-4)GlcNAc
Outline: as §1

[23] = target: Fuc(a1-2)[GalNAc(a1-3)]Gal(b1-4)GlcNAc(b1-3)Gal(b1-4)GlcNAc(b1-3)Gal(b1-4)GlcNAc
Outline: as §1

[24] = target: Fuc(a1-2)[GalNAc(a1-3)]Gal(b1-4)GlcNAc(b1-3)GalNAc
Outline: as §1

[25] = target: Fuc(a1-2)[GalNAc(a1-3)]Gal(b1-4)GlcNAc(b1-3)[Fuc(a1-2)[GalNAc(a1-3)]Gal(b1-4)GlcNAc(b1-6)]GalNAc
Outline: as §1

[26] = target: Fuc(a1-2)[GalNAc(a1-3)]Gal(b1-4)GlcNAc(b1-6)GalNAc
Outline: as §1

[27] = target: Fuc(a1-2)[GalNAc(a1-3)]Gal(b1-4)[Fuc(a1-3)]GlcNAc
Outline: as §1

[28] = target: Fuc(a1-2)[GalNAc(a1-3)]Gal(b1-4)[Fuc(a1-3)]GlcNAc(b1-3)GalNAc
Outline: as §1

[29] = target: Fuc(a1-2)[GalNAc(a1-4)]Gal(b1-4)GlcNAc
Outline: as §1

[30] = target: Fuc(a1-2)[GalNAc(b1-3)]Gal
Outline: as §1

Fuc(a1-3)GlcNAc = target: Fuc(a1-3)GlcNAc
Outline: as §1

[31] = target: Fuc(a1-3)[Gal(b1-4)]Glc6S
Outline: as §1

[32] = target: Fuc(a1-3)[Gal(b1-4)]GlcNAc
Outline: as §1

[33] = target: Fuc(a1-3)[Gal(b1-4)]GlcNAc(b1-2)Man
Outline: as §1

[34] = target: Fuc(a1-3)[Gal(b1-4)]GlcNAc(b1-2)Man(a1-3)[Fuc(a1-3)[Gal(b1-4)]GlcNAc(b1-2)Man(a1-6)]Man(b1-4)GlcNAc(b1-4)GlcNAc
Outline: as §1

[35] = target: Fuc(a1-3)[Gal(b1-4)]GlcNAc(b1-2)Man(a1-3)[Fuc(a1-3)[Gal(b1-4)]GlcNAc(b1-2)Man(a1-6)]Man(b1-4)GlcNAc(b1-4)[Fuc(a1-6)]GlcNAc
Outline: as §1

[36] = target: Fuc(a1-3)[Gal(b1-4)]GlcNAc(b1-3)Gal(b1-3)[Fuc(a1-4)]GlcNAc
Outline: as §1

[37] = target: Fuc(a1-3)[Gal(b1-4)]GlcNAc(b1-3)Gal(b1-4)[Fuc(a1-3)]GlcNAc
Outline: as §1

[38] = target: Fuc(a1-3)[Gal(b1-4)]GlcNAc(b1-3)Gal(b1-4)[Fuc(a1-3)]GlcNAc(b1-3)Gal(b1-4)[Fuc(a1-3)]GlcNAc
Outline: as §1

[39] = target: Fuc(a1-3)[Gal(b1-4)]GlcNAc(b1-3)GalNAc
Outline: as §1

[40] = target: Fuc(a1-3)[Gal(b1-4)]GlcNAc(b1-6)GalNAc
Outline: as §1

[41] = target: Fuc(a1-3)[Gal(b1-4)]GlcNAc(b1-6)[Gal(b1-3)GlcNAc(b1-3)]Gal(b1-4)Glc
Outline: as §1

[42] = target: Fuc(a1-3)[Gal(b1-4)]GlcNAc6S
Outline: as §1

[43] = target: Fuc(a1-3)[Gal3S(b1-4)]Glc
Outline: as §1

[44] = target: Fuc(a1-3)[Gal3S(b1-4)]GlcNAc
Outline: as §1

[45] = target: Fuc(a1-3)[Gal3S(b1-4)]GlcNAc6S
Outline: as §1

[46] = target: Fuc(a1-3)[GalNAc(b1-4)]GlcNAc
Outline: as §1

[47] = target: Fuc(a1-3)[GalNAc(b1-4)]GlcNAc6S
Outline: as §1

Fuc(a1-4)GlcNAc = target: Fuc(a1-4)GlcNAc
Outline: as §1

Fuc(b1-3)GlcNAc = target: Fuc(b1-3)GlcNAc
Outline: as §1

Gal(a1-2)Gal = target: Gal(a1-2)Gal
Outline: as §1

Gal(a1-3)Gal = target: Gal(a1-3)Gal
Outline: as §1

Gal(a1-3)Gal(b1-3)GlcNAc = target: Gal(a1-3)Gal(b1-3)GlcNAc
Outline: as §1

[48] = target: Gal(a1-3)Gal(b1-3)GlcNAc(b1-2)Man
Outline: as §1

[49] = target: Gal(a1-3)Gal(b1-3)GlcNAc(b1-2)Man(a1-3)[Gal(a1-3)Gal(b1-3)GlcNAc(b1-2)Man(a1-6)]Man(b1-4)GlcNAc(b1-4)GlcNAc
Outline: as §1

[50] = target: Gal(a1-3)Gal(b1-3)GlcNAc(b1-3)GalNAc
Outline: as §1

[51] = target: Gal(a1-3)Gal(b1-3)GlcNAc(b1-6)GalNAc
Outline: as §1

[52] = target: Gal(a1-3)Gal(b1-3)[Fuc(a1-4)]GlcNAc(b1-2)Man(a1-3)[Gal(a1-3)Gal(b1-3)[Fuc(a1-4)]GlcNAc(b1-2)Man(a1-6)]Man(b1-4)GlcNAc(b1-4)GlcNAc
Outline: as §1

Gal(a1-3)Gal(b1-4)Glc = target: Gal(a1-3)Gal(b1-4)Glc
Outline: as §1

Gal(a1-3)Gal(b1-4)GlcNAc = target: Gal(a1-3)Gal(b1-4)GlcNAc
Outline: as §1

B1: Thrombomodulin Extracellular (Mus musculus), P15306 (protein)
chain: MLGIFFLGVLAPASLGLSALAKLQPTGSQCVEHECFALFQGPATFLDASQACQRLQGHLMTVRSSVAADVISLLLSQSSMDLGPWIGLQLPQGCDDPVHLGPLRGFQWVTGDNHTSYSRWARPNDQTAPLCGPLCVTVSTATEAAPGEPAWEEKPCETETQGFLCEFYFTASCRPLTVNTRDPEAAHISSTYNTPFGVSGADFQTLPVGSSAAVEPLGLELVCRAPPGTSEGHWAWEATGAWNCSVENGGCEYLCNRSTNEPRCLCPRDMDLQADGRSCARPVVQSCNELCEHFCVSNAEVPGSYSCMCETGYQLAADGHRCEDVDDCKQGPNPCPQLCVNTKGGFECFCYDGYELVDGECVELLDPCFGSNCEFQCQPVSPTDYRCICAPGFAPKPDEPHKCEMFCNETSCPADCDPNSPTVCECPEGFILDEGSVCTDIDECSQGECFTSECRNFPGSYECICGPDTALAGQISKDCDPIPVREDTKEEEGSGEPPVSPTPGSPTGPPSARPVHSGVLIGISIASLSLVVALLALLCHLRKKQGAARAELEYKCASSAKEVVLQHVRTDRTLQKF
[1]
  glycan array binding signal (z-score): 1.13
[2]
  glycan array binding signal (z-score): -0.46
[3]
  glycan array binding signal (z-score): 0.857
[4]
  glycan array binding signal (z-score): -0.157
[5]
  glycan array binding signal (z-score): -1.18
[6]
  glycan array binding signal (z-score): 0.13
[7]
  glycan array binding signal (z-score): -0.478
[8]
  glycan array binding signal (z-score): 0.977
[9]
  glycan array binding signal (z-score): -0.162
[10]
  glycan array binding signal (z-score): 0.147
[11]
  glycan array binding signal (z-score): 0.298
[12]
  glycan array binding signal (z-score): 1.28
[13]
  glycan array binding signal (z-score): -0.08
[14]
  glycan array binding signal (z-score): 1.19
[15]
  glycan array binding signal (z-score): -0.236
[16]
  glycan array binding signal (z-score): -0.73
[17]
  glycan array binding signal (z-score): -1.64
[18]
  glycan array binding signal (z-score): -0.749
[19]
  glycan array binding signal (z-score): 1.79
[20]
  glycan array binding signal (z-score): 1.36
[21]
  glycan array binding signal (z-score): -1.18
[22]
  glycan array binding signal (z-score): -0.54
[23]
  glycan array binding signal (z-score): 0.782
[24]
  glycan array binding signal (z-score): -0.435
[25]
  glycan array binding signal (z-score): -0.665
[26]
  glycan array binding signal (z-score): -0.211
[27]
  glycan array binding signal (z-score): -2
[28]
  glycan array binding signal (z-score): 0.285
[29]
  glycan array binding signal (z-score): -0.241
[30]
  glycan array binding signal (z-score): 0.67
Fuc(a1-3)GlcNAc
  glycan array binding signal (z-score): -0.402
[31]
  glycan array binding signal (z-score): 0.899
[32]
  glycan array binding signal (z-score): -0.624
[33]
  glycan array binding signal (z-score): -2.17
[34]
  glycan array binding signal (z-score): -0.361
[35]
  glycan array binding signal (z-score): 0.185
[36]
  glycan array binding signal (z-score): -0.513
[37]
  glycan array binding signal (z-score): -0.843
[38]
  glycan array binding signal (z-score): -1.64
[39]
  glycan array binding signal (z-score): -0.136
[40]
  glycan array binding signal (z-score): 0.626
[41]
  glycan array binding signal (z-score): -0.049
[42]
  glycan array binding signal (z-score): -1.05
[43]
  glycan array binding signal (z-score): -0.681
[44]
  glycan array binding signal (z-score): 0.004
[45]
  glycan array binding signal (z-score): -0.475
[46]
  glycan array binding signal (z-score): -0.476
[47]
  glycan array binding signal (z-score): 0.573
Fuc(a1-4)GlcNAc
  glycan array binding signal (z-score): -0.498
Fuc(b1-3)GlcNAc
  glycan array binding signal (z-score): 0.002
Gal(a1-2)Gal
  glycan array binding signal (z-score): -1.35
Gal(a1-3)Gal
  glycan array binding signal (z-score): -0.771
Gal(a1-3)Gal(b1-3)GlcNAc
  glycan array binding signal (z-score): -0.434
[48]
  glycan array binding signal (z-score): 0.525
[49]
  glycan array binding signal (z-score): 0.235
[50]
  glycan array binding signal (z-score): 1.3
[51]
  glycan array binding signal (z-score): 0.877
[52]
  glycan array binding signal (z-score): 1.48
Gal(a1-3)Gal(b1-4)Glc
  glycan array binding signal (z-score): -0.459
Gal(a1-3)Gal(b1-4)GlcNAc
  glycan array binding signal (z-score): -0.81
